Data as given in the supplement of paper PMC10727501.
Some of the results follow. This data set is noisy: repeats of one test often differ as much as different tests do.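 Free-swimming zebrafish larvae were scored for O-bend response probability to dark flashes (naive: first five; training: remaining flashes of four 60-flash blocks; test: later 60-flash block) and for turning toward alternating leftward/rightward LED motion (OMR). Six treated larvae were compared with sixty 0.1% DMSO controls; |SSMD|≥2 defined a hit.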

Test system: Danio rerio larvae (5 dpf, TLF)
Test: Prob-Naive (SSMD vs DMSO vehicle); higher = higher than vehicle (e.g. higher dark-flash O-bend response probability, or better optomotor performance)
Conditions: 10 µM; pre-incubation: 30-90 min

Compound | Prob-Naive
COc1cc([C@H]2Oc3cc([C@@H]4Oc5cc(O)cc(O)c5C(=O)[C@@H]4O)ccc3O[C@@H]2CO)ccc1O [Silibinin] | 0.47
Nc1nc(Cl)nc2c1ncn2[C@H]1C[C@H](O)[C@@H](CO)O1 [Cladribine] | -0.0954
Cc1c(Cl)cccc1Nc1ccccc1C(=O)O [Tolfenamic Acid] | -2.5
CC(CNC(=O)c1cccnc1)NC(=O)c1cccnc1 (configuration not stated) [Nicaraven] | -0.0588
Cl.c1ccc2c(CC3=NCCN3)cccc2c1 [Naphazoline HCl] | -0.197
C[C@@]12CCC3=C4CCC(=O)C=C4CC[C@H]3[C@@H]1CC[C@@]2(O)CC#N [Dienogest] | 0.045
O.O.O=c1c(O)c(-c2ccc(O)c(O)c2)oc2cc(O)cc(O)c12 [Quercetin Dihydrate] | -0.0925
COc1cc(Nc2c(C#N)cnc3cc(OCCCN4CCN(C)CC4)c(OC)cc23)c(Cl)cc1Cl [Bosutinib (SKI-606)] | -0.076
Cl.N=C(N)NCCCC(N)C(=O)O (stereo in doubt) [L-Arginine HCl] | 0.421
CN1CC[C@H](c2c(O)cc(O)c3c(=O)cc(-c4ccccc4Cl)oc23)[C@H](O)C1.Cl [Flavopiridol HCl] | 0.148
COC(=O)C1=CO[C@@H](O[C@@H]2O[C@H](CO)[C@@H](O)[C@@H](O)[C@H]2O)[C@H]2C(CO)=CC[C@H]12 [Geniposide] | 0.208
Cc1cc(Nc2cc(N3CCN(C)CC3)nc(Sc3ccc(NC(=O)C4CC4)cc3)n2)n[nH]1 [VX-680 (Tozasertib, MK-0457)] | 0.0475
